We go through one substance from PMC11998267.

Sequences of proteins named here, by UniProt entry; tags and fusion partners are left off.
UniProt P67809: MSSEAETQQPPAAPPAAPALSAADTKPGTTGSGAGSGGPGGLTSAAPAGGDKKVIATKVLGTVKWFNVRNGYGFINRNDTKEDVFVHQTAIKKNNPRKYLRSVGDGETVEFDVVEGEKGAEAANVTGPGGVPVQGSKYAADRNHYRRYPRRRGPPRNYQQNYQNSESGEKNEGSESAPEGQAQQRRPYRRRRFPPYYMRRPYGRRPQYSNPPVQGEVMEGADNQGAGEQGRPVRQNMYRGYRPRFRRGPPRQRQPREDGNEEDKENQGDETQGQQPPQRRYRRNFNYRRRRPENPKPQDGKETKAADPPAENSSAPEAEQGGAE

The assay addresses T1, interleukin enhancer-binding factor 3 (human (endogenous in CRC cells)) (UniProt Q12906).
T1 sequence: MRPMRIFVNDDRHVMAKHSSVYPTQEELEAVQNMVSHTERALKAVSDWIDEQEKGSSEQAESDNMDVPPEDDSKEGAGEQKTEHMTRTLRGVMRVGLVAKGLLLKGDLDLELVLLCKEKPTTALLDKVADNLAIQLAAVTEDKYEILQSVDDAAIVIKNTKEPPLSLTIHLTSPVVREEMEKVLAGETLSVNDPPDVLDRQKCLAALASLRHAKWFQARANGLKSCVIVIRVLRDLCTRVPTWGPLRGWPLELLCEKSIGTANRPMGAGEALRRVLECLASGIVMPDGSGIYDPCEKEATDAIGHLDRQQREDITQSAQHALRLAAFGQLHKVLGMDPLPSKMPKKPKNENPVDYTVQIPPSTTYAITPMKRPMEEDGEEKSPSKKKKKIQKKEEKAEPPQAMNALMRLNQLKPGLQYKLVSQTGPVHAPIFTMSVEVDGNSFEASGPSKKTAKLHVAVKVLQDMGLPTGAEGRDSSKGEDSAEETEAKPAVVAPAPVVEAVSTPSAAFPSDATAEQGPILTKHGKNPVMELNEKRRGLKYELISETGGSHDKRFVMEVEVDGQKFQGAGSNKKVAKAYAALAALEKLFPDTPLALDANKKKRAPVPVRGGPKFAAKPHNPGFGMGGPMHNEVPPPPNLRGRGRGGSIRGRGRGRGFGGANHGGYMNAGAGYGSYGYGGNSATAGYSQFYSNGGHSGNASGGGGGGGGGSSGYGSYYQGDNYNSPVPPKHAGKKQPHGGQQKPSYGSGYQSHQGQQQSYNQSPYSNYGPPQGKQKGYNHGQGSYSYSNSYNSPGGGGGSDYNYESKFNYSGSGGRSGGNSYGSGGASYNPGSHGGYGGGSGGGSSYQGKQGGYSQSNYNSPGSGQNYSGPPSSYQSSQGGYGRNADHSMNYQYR
Nature of the assay: co-IP; Co-IP in CRC cells, Western blot; YBX1 co-precipitated with ILF3; also done after LINC02167 knockdown (less YBX1 co-precipitated) or overexpression (more). (In general: Immunoblotting shows a protein as a band on a membrane.)

These are yes or no findings as the source states them, for the method shown. In cells and extracts the contact can be indirect. Some binding calls cover weakened binding; strength is not graded here.

On to “Y-box binding protein 1 (from UniProt P67809 1-324)”, for which the binding result is reported as “binds”.
